This test relates to L1210 leukemia ip in BDF1 mice, survival T/C. The test can be described thus: NCI In Vivo Anticancer Drug Screen. Data for tumor model L1210 Leukemia (intraperitoneal) in B6D2F1 (BDF1) mice. As to conditions: higher T/C = longer survival.
[1] abbreviates: T/C endpoint: mean survival time, dose: 50.0 mg/kg/injection, schedule: Q01DX009 (ip), vehicle: saline.
Where [2] appears, read: T/C endpoint: mean survival time, dose: 100.0 mg/kg/injection, schedule: Q01DX001 (ip), vehicle: saline.
Setting [3] is: T/C endpoint: mean survival time, dose: 100.0 mg/kg/injection, schedule: Q04DX003 (ip), vehicle: saline with Tween-80.
Setting [4] is: T/C endpoint: mean survival time, dose: 150.0 mg/kg/injection, schedule: Q01DX001 (ip), vehicle: saline.
The mark [5] stands for this setting: T/C endpoint: mean survival time, dose: 200.0 mg/kg/injection, schedule: Q01DX001 (ip), vehicle: saline with Tween-80.
[6] abbreviates: T/C endpoint: mean survival time, dose: 200.0 mg/kg/injection, schedule: Q01DX001 (ip), vehicle: saline.
[7] abbreviates: T/C endpoint: mean survival time, dose: 200.0 mg/kg/injection, schedule: Q04DX003 (ip), vehicle: saline with Tween-80.
Where [8] appears, read: T/C endpoint: mean survival time, dose: 400.0 mg/kg/injection, schedule: Q01DX001 (ip), vehicle: saline.
[9] abbreviates: T/C endpoint: mean survival time, dose: 200.0 mg/kg/injection, schedule: Q04DX002 (ip), vehicle: Klucel (hydroxypropylcellulose) (HPC).
Where [10] appears, read: T/C endpoint: mean survival time, dose: 400.0 mg/kg/injection, schedule: Q04DX002 (ip), vehicle: Klucel (hydroxypropylcellulose) (HPC).
Where [11] appears, read: T/C endpoint: mean survival time, dose: 400.0 mg/kg/injection, schedule: Q01DX009 (ip), vehicle: Klucel (hydroxypropylcellulose) (HPC).
[12] abbreviates: T/C endpoint: mean survival time, dose: 400.0 mg/kg/injection, schedule: Q04DX003 (ip), vehicle: saline with Tween-80.
Where [13] appears, read: T/C endpoint: mean survival time, dose: 400.0 mg/kg/injection, schedule: Q04DX003 (ip), vehicle: saline.
Where [14] appears, read: T/C endpoint: mean survival time, dose: 300.0 mg/kg/injection, schedule: Q01DX001 (ip), vehicle: saline.
[15] abbreviates: T/C endpoint: mean survival time, dose: 100.0 mg/kg/injection, schedule: Q01DX009 (ip), vehicle: saline.

The list is a part of this screen's results and no random one: it gathers tests that were run many times, whatever their T/C, doses with no T/C, and many T/C values between a quarter and a half above the control. Further doses and runs are listed elsewhere. T/C: endpoint of the treated group in % of that of the vehicle group. Some doses have a count of surviving animals in place of a T/C: the source files T/C as zero there, which appears to mark a toxic dose or a test without result, not a measured value. Some survivor counts are full or nearly so, which does not show that the dose was tolerated: the source hardly ever lists a survival T/C far under the control, and the zero likely stands for such cases as well. Survivors were counted at the toxicity check, usually on the fifth day, unless a day is given; later deaths do not show. Schedules are NCI's codes, read here as Q, the interval in days (D) or hours (H), X, the number of doses. Some entries were tested several times; the results are listed from low to high. Some schedules carry Z or #; the key to these is not given. Where survival is the endpoint, the PubChem record calls one and a half times the control and up active, and a quarter to a half above the control has no call in these data; cut-offs in other NCI protocols can differ. Some T/C values are followed by the survivors on the day toxicity was checked, most often the fifth; where none is given, no animal had died by that day.

On to `COc1cc([C@@H]2c3cc4c(cc3C[C@H]3COC(=O)[C@@H]32)OCO4)cc(OC)c1OC`, for which the survivor count was 2 of 6 (T/C endpoint: mean survival time, dose: 30.0 mg/kg/injection, schedule: Q01DX009 (ip), vehicle: saline); 2 of 6 (T/C endpoint: mean survival time, dose: 40.0 mg/kg/injection, schedule: Q01DX009 (ip), vehicle: saline); 5 of 6 under setting [1]; 1 of 6 (T/C endpoint: mean survival time, dose: 100.0 mg/kg/injection, schedule: Q01DX001 (ip), vehicle: saline with Tween-80); 2 of 6 under setting [4]; 0 of 6 (T/C endpoint: mean survival time, dose: 200.0 mg/kg/injection, schedule: Q01DX001 (ip), vehicle: other). Moreover, the survivor count runs as follows: under setting [5], 2 of 6; under setting [7], 0 of 6; under setting [8], 0 of 4; (T/C endpoint: median survival time, dose: 20.0 mg/kg/injection, schedule: Q01DX009 (ip), vehicle: saline) 2 of 8. Also, the T/C runs as follows: (T/C endpoint: mean survival time, dose: 67.0 mg/kg/injection, schedule: Q01DX001 (ip), vehicle: saline) 133 % of control; under setting [2], 139 % of control; under setting [3], 133 % of control; under setting [6], 127 % of control.
With `O=C1c2ccccc2C(=O)N1C1CCC(O)CC1` (configuration not stated), the survivor count under setting [5] is on record as 1 of 6 and the survivor count (T/C endpoint: mean survival time, dose: 400.0 mg/kg/injection, schedule: Q01DX001 (ip), vehicle: saline with Tween-80) is listed as 0 of 6.
For the compound `CCOC(=O)NCC(CCN(C)C)(c1cccc2ccccc12)C(C)C` (configuration not stated), the survivor count is, setting by setting: (T/C endpoint: mean survival time, dose: 400.0 mg/kg/injection, schedule: Q01DX009 (ip), vehicle: saline) 1 of 6; (T/C endpoint: mean survival time, dose: 400.0 mg/kg/injection, schedule: Q04DX003 (ip), vehicle: Klucel (hydroxypropylcellulose) (HPC)) 2 of 6.
As to `CCOP(=O)(CSc1ccccc1)OCC`, the survivor count (T/C endpoint: mean survival time, dose: 100.0 mg/kg/injection, schedule: Q01DX009 (ip), vehicle: saline with Tween-80) is 1 of 3; the survivor count (T/C endpoint: mean survival time, dose: 100.0 mg/kg/injection, schedule: Q04DX002 (ip), vehicle: saline with Tween-80) was 1 of 3; the survivor count (T/C endpoint: mean survival time, dose: 200.0 mg/kg/injection, schedule: Q04DX002 (ip), vehicle: saline with Tween-80) is 0 of 3; the survivor count (T/C endpoint: mean survival time, dose: 400.0 mg/kg/injection, schedule: Q04DX002 (ip), vehicle: saline with Tween-80) was 0 of 3.
Turning to `CC(=O)CC(OC(=O)c1cc([N+](=O)[O-])cc([N+](=O)[O-])c1)(C(F)(F)F)C(F)(F)F`, where the note is “T/C endpoint: mean survival time, dose: 50.0 mg/kg/injection, schedule: Q01DX009 (ip), vehicle: Klucel (hydroxypropylcellulose) (HPC)”, the survivor count is 1 of 6.
Consider `O=C1C=CC(=O)N1C12CC3CC(CC(C3)C1)C2`, for which the survivor count (T/C endpoint: mean survival time, dose: 100.0 mg/kg/injection, schedule: Q04DX002 (ip), vehicle: Klucel (hydroxypropylcellulose) (HPC)) was 0 of 3; the survivor count under setting [9] is 0 of 3; the survivor count under setting [10] was 0 of 3.
For `CC(=O)Nc1nn[nH]n1`, the survivor count under setting [11] was 6 of 6.
As to `Cn1cnc([N+](=O)[O-])c1[Se]c1ncnc2c1c(C#N)cn2C1OC(CO)C(O)C1O` (configuration not stated), the survivor count (T/C endpoint: mean survival time, dose: 50.0 mg/kg/injection, schedule: Q01DX005 (ip), vehicle: saline) is listed as 1 of 6; the survivor count (T/C endpoint: mean survival time, dose: 100.0 mg/kg/injection, schedule: Q01DX005 (ip), vehicle: saline) is given as 1 of 6; the survivor count (T/C endpoint: mean survival time, dose: 200.0 mg/kg/injection, schedule: Q01DX005 (ip), vehicle: saline) is 0 of 6.
In the case of `Nc1cc(C(=O)O)c(O)c(Cl)c1O`, the survivor count under setting [3] was 4 of 6, the survivor count under setting [7] was 1 of 6 and the survivor count under setting [12] is 0 of 6.
Take `CCCCC[n+]1ccc(C(N)=O)cc1`: the survivor count under setting [13] was 4 of 6.
On to `COC(C(OC)N1CCOCC1)N1CCOCC1` (configuration not stated), for which the T/C (T/C endpoint: mean survival time, dose: 200.0 mg/kg/injection, schedule: Q01DX009 (ip), vehicle: saline) was 128 % of control [4 of 6 alive].
`O=C1OCc2cccc3cccc1c23`: the survivor count under setting [12] is 1 of 3.
Regarding `O=C(NCCCCCCCCCCCCNC(=O)Nc1cccc(C2=NCC(O)CN2)c1)Nc1cccc(C2=NCC(O)CN2)c1` (configuration not stated), the survivor count runs as follows: (T/C endpoint: mean survival time, dose: 250.0 mg/kg/injection, schedule: Q01DX Z (ip), vehicle: carboxymethylcellulose (CMC)) 1 of 5; (T/C endpoint: mean survival time, dose: 500.0 mg/kg/injection, schedule: Q01DX Z (ip), vehicle: carboxymethylcellulose (CMC)) 0 of 6.
Regarding `CCCCCCCC(C)NCCCO` (configuration not stated), the survivor count by setting is: under setting [4], 0 of 6; under setting [14], 0 of 6.
`O=C(Nc1cc2ccccc2nc1-c1ccccc1)c1ccccc1`: the survivor count is 3 of 6 under setting [6] and 0 of 6 under setting [8].
In the case of `CCNC(=O)Oc1ccc(S(=O)(=O)F)cc1Cl`, the survivor count is, setting by setting: (T/C endpoint: mean survival time, dose: 200.0 mg/kg/injection, schedule: Q01DX001 (ip), vehicle: carboxymethylcellulose (CMC)) 0 of 6; (T/C endpoint: mean survival time, dose: 400.0 mg/kg/injection, schedule: Q01DX001 (ip), vehicle: carboxymethylcellulose (CMC)) 0 of 6.
`OCC1OC(n2cnc3c2ncn2ccnc32)C(O)C1O` (configuration not stated): the survivor count (T/C endpoint: mean survival time, dose: 400.0 mg/kg/injection, schedule: Q03HX024 (ip), vehicle: saline) is given as 6 of 6.
In the case of `CCCCN(CCCC)CCNc1ccc(Cl)c2oc3cc(C)ccc3c(=O)c12`, the survivor count is given as 6 of 6 under setting [3], 6 of 6 under setting [7] and 5 of 6 under setting [12].
In the case of `O=C(O)C1CC(c2ccccc2)=C(c2ccccc2)CC1C(=O)O` (configuration not stated), the T/C under setting [9] was 125 % of control. Besides, the survivor count under setting [10] is 0 of 3 and 1 of 3.
For the compound `CC(C)(C)S/C=C/C(N)=O`, the survivor count under setting [8] is 6 of 6.
With `N/C(=N\O)c1ccc2ccc3cccnc3c2n1`, the survivor count under setting [12] was 2 of 4.
For `[O-]/[N+](=C\c1ccccc1)c1ccccc1`, the survivor count under setting [8] is 0 of 4.
As to `COc1cc2ccc3ccncc3c2cc1OC`, the survivor count under setting [15] is listed as 2 of 6; the survivor count (T/C endpoint: mean survival time, dose: 200.0 mg/kg/injection, schedule: Q04DX003 (ip), vehicle: saline) is given as 3 of 6; the survivor count under setting [13] is recorded as 2 of 6.
As to `CC(C)(COC(=O)c1ccc(N)cc1)NC1CCCCC1`, the survivor count by setting is: under setting [4], 3 of 6; under setting [14], 0 of 6.
As to `Cc1cc(OCC(=O)O)c(Cl)cc1Cl`, where the note is “T/C endpoint: mean survival time, dose: 200.0 mg/kg/injection, schedule: Q01DX009 (ip), vehicle: saline with Tween-80”, the survivor count is 3 of 3.
In the case of `N#Cc1nn(C2OC(CO)C(O)C2O)c2ncnc(N)c12` (configuration not stated), the T/C under setting [15] was 127 % of control [5 of 6 alive].
As for `CNC(=O)N(C)Cc1ccco1`, the survivor count under setting [11] is reported as 2 of 6.
Turning to `CC(C)=NN=C(C)C`, the survivor count reads like this: under setting [1], 6 of 6; (T/C endpoint: mean survival time, dose: 100.0 mg/kg/injection, schedule: Q04DX003 (ip), vehicle: saline) 3 of 6; under setting [6], 0 of 6; under setting [8], 0 of 6.
For the compound `CC(C)(C#N)N=NC(C)(C)C#N`, the survivor count by setting is: (T/C endpoint: mean survival time, dose: 100.0 mg/kg/injection, schedule: Q01DX009 (ip), vehicle: alcohol) 2 of 6; (T/C endpoint: mean survival time, dose: 200.0 mg/kg/injection, schedule: Q04DX003 (ip), vehicle: alcohol) 2 of 6.
Take `O=C(O)/C=C/[P+](c1ccccc1)(c1ccccc1)c1ccccc1`: the survivor count reads like this: (T/C endpoint: mean survival time, dose: 40.0 mg/kg/injection, schedule: Q01DX001 (ip), vehicle: saline) 0 of 4; (T/C endpoint: mean survival time, dose: 80.0 mg/kg/injection, schedule: Q01DX001 (ip), vehicle: saline) 0 of 4; under setting [2], 0 of 4; under setting [6], 0 of 4; under setting [8], 0 of 4.

The record behind these values is PubChem BioAssay AID248 (DTP/NCI, 2004).
